Measurements reported in PubChem BioAssay AID652243 (Drosophila RNAi Screening Center, 2013).
The deposit covers about 24,000 reagents; shown is a random part of those with a known target gene and a result. Over the whole deposit, 246 (1%) were called active. 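Plates not normalised; calls are printed but the firefly/Renilla ratio behind them is not deposited; fold cut for lowering reported inconsistently.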 The raw values are shown without normalisation. Not stated in the record: the amount of reagent.

Assay: 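Fly regulators of androgen-dependent reporter output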 (primary screen)
Cell system: Drosophila S2R+ cells
Reagents: long dsRNA against Drosophila genes
Duration: 72 h (48 h, then 24 h hormone)
Challenge: synthetic androgen R1881 at 10 nM for 24 h
Detection: 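Firefly light from an androgen-responsive reporter and Renilla control light per well, raw and unnormalised, for each of two replicates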
Reading the numbers: firefly reporter light: higher = more light from androgen-responsive reporter; Renilla control light: higher = more constitutive control signal (cell number, transfection)
Call rule: 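Across duplicate plates, a knock-down whose log firefly/Renilla ratio shifted a set fold down or up from the GFP/LacZ control mean was a hit; the downward cut appears as both 1.5 and 3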
Meaning of the calls: active = hit: reporter lowered or raised; inactive = no hit

hep (GeneID 32256) [SID104199631]
- firefly reporter light, replicate 1: 2.71e5
- firefly reporter light, replicate 2: 3.20e5
- Renilla control light, replicate 1: 3.05e6
- Renilla control light, replicate 2: 3.19e6
- Call: inactive

hep (GeneID 32256) [SID104200129]
- firefly reporter light, replicate 1: 6.08e5
- firefly reporter light, replicate 2: 8.44e5
- Renilla control light, replicate 1: 4.97e6
- Renilla control light, replicate 2: 5.55e6
- Call: inactive

hep (GeneID 32256) [SID104204875]
- firefly reporter light, replicate 1: 2.40e5
- firefly reporter light, replicate 2: 2.53e5
- Renilla control light, replicate 1: 5.54e5
- Renilla control light, replicate 2: 5.82e5
- Call: inactive

hep (GeneID 32256) [SID104214236]
- Call: inactive

CG5662 (GeneID 32450) [SID104199749]
- firefly reporter light, replicate 1: 4.07e5
- firefly reporter light, replicate 2: 3.26e5
- Renilla control light, replicate 1: 2.92e6
- Renilla control light, replicate 2: 3.50e6
- Call: inactive

CG6296 (GeneID 43246) [SID104195805]
- firefly reporter light, replicate 1: 62207
- firefly reporter light, replicate 2: 96108
- Renilla control light, replicate 1: 4.51e5
- Renilla control light, replicate 2: 4.54e5
- Call: inactive

CG7149 (GeneID 34063) [SID104182808]
- firefly reporter light, replicate 1: 6.32e5
- firefly reporter light, replicate 2: 8.66e5
- Renilla control light, replicate 1: 2.07e6
- Renilla control light, replicate 2: 1.49e6
- Call: inactive

RhoGAP92B (GeneID 42371) [SID104194299]
- firefly reporter light, replicate 1: 3.62e5
- firefly reporter light, replicate 2: 3.63e5
- Renilla control light, replicate 1: 2.63e6
- Renilla control light, replicate 2: 2.95e6
- Call: inactive

RhoGAP92B (GeneID 42371) [SID104195429]
- firefly reporter light, replicate 1: 1.82e5
- firefly reporter light, replicate 2: 1.91e5
- Renilla control light, replicate 1: 2.76e6
- Renilla control light, replicate 2: 2.56e6
- Call: inactive

vari (GeneID 35343) [SID104182994]
- firefly reporter light, replicate 1: 95302
- firefly reporter light, replicate 2: 1.16e5
- Renilla control light, replicate 1: 1.06e6
- Renilla control light, replicate 2: 1.18e6
- Call: inactive

vari (GeneID 35343) [SID104214428]
- Call: inactive

Naam (GeneID 42348) [SID104196044]
- firefly reporter light, replicate 1: 2.74e5
- firefly reporter light, replicate 2: 3.89e5
- Renilla control light, replicate 1: 3.93e6
- Renilla control light, replicate 2: 3.51e6
- Call: inactive

CG34307 (GeneID 5740370) [SID104216234]
- firefly reporter light, replicate 1: 6.15e5
- firefly reporter light, replicate 2: 6.79e5
- Renilla control light, replicate 1: 2.27e6
- Renilla control light, replicate 2: 2.24e6
- Call: inactive

CG12170 (GeneID 40692) [SID104191991]
- firefly reporter light, replicate 1: 4.19e5
- firefly reporter light, replicate 2: 3.32e5
- Renilla control light, replicate 1: 3.70e6
- Renilla control light, replicate 2: 3.03e6
- Call: inactive

alphaTub84D (GeneID 40904) [SID104192415]
- firefly reporter light, replicate 1: 40053
- firefly reporter light, replicate 2: 35712
- Renilla control light, replicate 1: 1.90e6
- Renilla control light, replicate 2: 1.69e6
- Call: inactive

alphaTub84D (GeneID 40904) [SID104202765]
- firefly reporter light, replicate 1: 6.66e5
- firefly reporter light, replicate 2: 7.81e5
- Renilla control light, replicate 1: 8.29e5
- Renilla control light, replicate 2: 5.78e5
- Call: inactive

alphaTub84D (GeneID 40904) [SID104216526]
- firefly reporter light, replicate 1: 6.85e5
- firefly reporter light, replicate 2: 6.44e5
- Renilla control light, replicate 1: 1.83e6
- Renilla control light, replicate 2: 1.38e6
- Call: inactive

CG1440 (GeneID 31776) [SID104197707]
- firefly reporter light, replicate 1: 4.45e5
- firefly reporter light, replicate 2: 4.45e5
- Renilla control light, replicate 1: 3.42e6
- Renilla control light, replicate 2: 3.67e6
- Call: inactive

Arp8 (GeneID 32769) [SID104199851]
- firefly reporter light, replicate 1: 1.19e5
- firefly reporter light, replicate 2: 1.19e5
- Renilla control light, replicate 1: 7.05e5
- Renilla control light, replicate 2: 6.67e5
- Call: inactive

Arp8 (GeneID 32769) [SID104204976]
- firefly reporter light, replicate 1: 2.79e5
- firefly reporter light, replicate 2: 2.80e5
- Renilla control light, replicate 1: 8.36e5
- Renilla control light, replicate 2: 7.21e5
- Call: inactive

sunz (GeneID 40811) [SID104192351]
- firefly reporter light, replicate 1: 63846
- firefly reporter light, replicate 2: 38107
- Renilla control light, replicate 1: 9.95e5
- Renilla control light, replicate 2: 9.57e5
- Call: inactive
